Results from article PMC10948558.
No constants are given. Whether binding was seen depends on the method and setting. Binding seen in cells or lysates may run through a third protein. Some results given as binding are weak or reduced against the parent protein; the word gives no strength.

Chains of the proteins cited; added tags and fusions are not shown.
UniProt Q96RU2: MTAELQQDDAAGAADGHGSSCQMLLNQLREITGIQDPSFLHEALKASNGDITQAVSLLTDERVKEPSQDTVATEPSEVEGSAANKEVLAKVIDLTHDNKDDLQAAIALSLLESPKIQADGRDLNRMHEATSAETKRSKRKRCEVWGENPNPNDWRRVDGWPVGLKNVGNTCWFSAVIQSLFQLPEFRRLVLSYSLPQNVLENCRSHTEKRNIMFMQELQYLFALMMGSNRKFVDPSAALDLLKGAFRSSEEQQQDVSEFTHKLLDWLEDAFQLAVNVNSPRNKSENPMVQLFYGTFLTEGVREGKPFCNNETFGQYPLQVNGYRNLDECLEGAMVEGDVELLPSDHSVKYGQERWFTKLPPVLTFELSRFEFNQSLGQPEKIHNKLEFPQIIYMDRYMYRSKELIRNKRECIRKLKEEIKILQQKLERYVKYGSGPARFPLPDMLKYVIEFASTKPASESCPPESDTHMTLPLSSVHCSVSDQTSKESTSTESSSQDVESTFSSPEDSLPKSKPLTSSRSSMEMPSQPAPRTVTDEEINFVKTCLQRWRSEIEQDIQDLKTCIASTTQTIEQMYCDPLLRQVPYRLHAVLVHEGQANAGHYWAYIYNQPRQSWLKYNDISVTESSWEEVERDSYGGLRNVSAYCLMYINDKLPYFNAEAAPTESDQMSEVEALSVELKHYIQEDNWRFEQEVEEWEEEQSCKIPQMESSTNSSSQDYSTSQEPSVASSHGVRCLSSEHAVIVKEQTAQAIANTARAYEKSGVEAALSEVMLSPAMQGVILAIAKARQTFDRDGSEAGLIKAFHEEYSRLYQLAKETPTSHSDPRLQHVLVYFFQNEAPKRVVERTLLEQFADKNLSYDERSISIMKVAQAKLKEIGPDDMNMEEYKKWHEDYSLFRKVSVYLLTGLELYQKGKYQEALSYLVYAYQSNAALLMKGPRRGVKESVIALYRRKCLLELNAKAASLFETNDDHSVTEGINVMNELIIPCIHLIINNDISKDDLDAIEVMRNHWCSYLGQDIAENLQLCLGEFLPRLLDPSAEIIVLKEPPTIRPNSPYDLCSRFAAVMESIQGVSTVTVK
UniProt Q9Y2H9: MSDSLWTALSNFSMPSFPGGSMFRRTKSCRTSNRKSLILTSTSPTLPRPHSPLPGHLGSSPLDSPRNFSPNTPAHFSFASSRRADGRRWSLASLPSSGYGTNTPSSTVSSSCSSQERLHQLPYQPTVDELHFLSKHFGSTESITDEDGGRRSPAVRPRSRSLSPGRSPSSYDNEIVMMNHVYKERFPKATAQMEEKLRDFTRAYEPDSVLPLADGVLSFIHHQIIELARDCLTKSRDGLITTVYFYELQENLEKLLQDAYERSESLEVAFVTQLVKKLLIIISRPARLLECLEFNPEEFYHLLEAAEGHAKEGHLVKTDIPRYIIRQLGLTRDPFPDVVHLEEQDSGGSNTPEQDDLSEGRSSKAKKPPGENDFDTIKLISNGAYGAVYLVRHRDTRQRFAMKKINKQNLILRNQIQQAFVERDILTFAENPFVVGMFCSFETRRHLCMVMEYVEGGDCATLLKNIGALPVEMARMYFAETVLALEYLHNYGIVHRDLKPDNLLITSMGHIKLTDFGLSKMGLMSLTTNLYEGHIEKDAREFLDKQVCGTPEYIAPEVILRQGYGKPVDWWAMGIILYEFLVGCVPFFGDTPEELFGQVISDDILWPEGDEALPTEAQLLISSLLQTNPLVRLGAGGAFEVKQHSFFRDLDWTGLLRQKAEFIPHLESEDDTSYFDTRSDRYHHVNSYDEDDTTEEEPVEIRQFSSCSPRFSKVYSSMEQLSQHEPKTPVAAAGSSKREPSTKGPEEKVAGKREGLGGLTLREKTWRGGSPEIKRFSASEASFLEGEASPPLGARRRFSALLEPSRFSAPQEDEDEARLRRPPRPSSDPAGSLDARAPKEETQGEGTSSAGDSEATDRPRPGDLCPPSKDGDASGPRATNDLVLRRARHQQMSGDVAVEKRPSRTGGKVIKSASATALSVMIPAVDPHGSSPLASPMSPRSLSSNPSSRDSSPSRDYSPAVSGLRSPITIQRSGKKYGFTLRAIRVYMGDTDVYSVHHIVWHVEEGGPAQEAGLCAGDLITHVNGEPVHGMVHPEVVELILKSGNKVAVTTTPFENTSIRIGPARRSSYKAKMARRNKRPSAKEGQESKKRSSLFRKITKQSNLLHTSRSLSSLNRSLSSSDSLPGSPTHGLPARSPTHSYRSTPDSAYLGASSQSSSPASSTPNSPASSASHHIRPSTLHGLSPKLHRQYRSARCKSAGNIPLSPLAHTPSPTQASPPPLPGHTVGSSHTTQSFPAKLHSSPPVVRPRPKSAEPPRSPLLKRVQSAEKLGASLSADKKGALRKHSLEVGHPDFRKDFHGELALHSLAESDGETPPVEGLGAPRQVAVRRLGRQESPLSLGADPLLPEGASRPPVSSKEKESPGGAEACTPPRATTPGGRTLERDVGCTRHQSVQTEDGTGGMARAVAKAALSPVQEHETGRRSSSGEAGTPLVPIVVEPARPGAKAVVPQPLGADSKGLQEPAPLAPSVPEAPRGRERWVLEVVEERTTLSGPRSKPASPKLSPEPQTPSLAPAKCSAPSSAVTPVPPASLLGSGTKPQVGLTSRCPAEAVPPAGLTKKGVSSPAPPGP

Molecular target: USP28 (human (endogenous in A549)) (UniProt Q96RU2)
Test: co-IP; endogenous proteins in A549 lysate; IP with antibodies against USP28 or MAST1 at 4 °C overnight, protein agarose beads; IP lysis buffer 25 mM Tris-HCl pH 7.4, 150 mM NaCl, 1 mM EDTA, 1% NP-40, 5% glycerol; western blot

binding: binds
Substance: microtubule-associated serine/threonine kinase 1 (MAST1) (from UniProt Q9Y2H9 1-1570) (enzyme)
